# Data from the odorant receptor screen of Mainland et al. (2015).
# Values joined by “and” are separate entries in the source; they are usually repeats but may differ in a detail not shown here. Equal values may be shown once. This is one part of the list. Single wells; the ratio to wells without odorant was worked out here, and repeats agree poorly.
# Experiments:
# Test in all cases: odorant receptor activation (CRE luciferase / Renilla) (fold of no-odor wells); higher = more activation
# Conditions in all cases: 100 µM
# OR5T2 clone 1313 = tested on: OR5T2 clone 1313
# OR5T2 clone 1428 = tested on: OR5T2 clone 1428
# OR5T3 clone 1343 = tested on: OR5T3 clone 1343
# OR5V1 clone 1070 = tested on: OR5V1 clone 1070
# OR6A2 clone 1489 = tested on: OR6A2 clone 1489
# OR6B1 R143C clone 1181 = tested on: OR6B1 R143C clone 1181
# OR6B2 R122C clone 1444 = tested on: OR6B2 R122C clone 1444
# OR6B3 R261W clone 1445 = tested on: OR6B3 R261W clone 1445
# [1] = tested on: OR6C1 V74I/C130Y/L161F/H165D/V246I/R291K clone 1442
# OR6C2 clone 1413 = tested on: OR6C2 clone 1413
structure (smiles),measurement,setting,value
CCCCCCCC=CC=O [2-decenal],odorant receptor activation,OR5T2 clone 1313,1.16
same,odorant receptor activation,OR5T2 clone 1428,0.873
same,odorant receptor activation,OR5T3 clone 1343,1.22
same,odorant receptor activation,OR5V1 clone 1070,3.37
same,odorant receptor activation,OR6A2 clone 1489,1.64
same,odorant receptor activation,OR6B1 R143C clone 1181,0.885
same,odorant receptor activation,OR6B2 R122C clone 1444,0.866
same,odorant receptor activation,OR6B3 R261W clone 1445,0.895
same,odorant receptor activation,[1],1.16
same,odorant receptor activation,OR6C2 clone 1413,1.35
"CC1CCC(C(C)C)C(O)C1 (single isomer, unassigned; (-)) [(-)-menthol]",odorant receptor activation,OR5T2 clone 1313,0.704
same,odorant receptor activation,OR5T2 clone 1428,0.877
same,odorant receptor activation,OR5T3 clone 1343,0.782
same,odorant receptor activation,OR5V1 clone 1070,2.46
same,odorant receptor activation,OR6A2 clone 1489,4.77
same,odorant receptor activation,OR6B1 R143C clone 1181,1.41
same,odorant receptor activation,OR6B2 R122C clone 1444,1.05
same,odorant receptor activation,OR6B3 R261W clone 1445,0.758
same,odorant receptor activation,[1],0.782
same,odorant receptor activation,OR6C2 clone 1413,0.775
COC(=O)c1ccccc1O [methyl salicylate],odorant receptor activation,OR5T2 clone 1313,1.06
same,odorant receptor activation,OR5T2 clone 1428,0.999
same,odorant receptor activation,OR5T3 clone 1343,0.799
same,odorant receptor activation,OR5V1 clone 1070,1.21
same,odorant receptor activation,OR6A2 clone 1489,1.09
same,odorant receptor activation,OR6B1 R143C clone 1181,0.663
same,odorant receptor activation,OR6B2 R122C clone 1444,0.77
same,odorant receptor activation,OR6B3 R261W clone 1445,0.935
same,odorant receptor activation,[1],1.33
same,odorant receptor activation,OR6C2 clone 1413,1.34
CC(C)C(=O)O [isobutyric acid],odorant receptor activation,OR5T2 clone 1313,1.18 and 0.694
same,odorant receptor activation,OR5T2 clone 1428,0.852
same,odorant receptor activation,OR5T3 clone 1343,1.09 and 0.868
same,odorant receptor activation,OR5V1 clone 1070,0.592
same,odorant receptor activation,OR6A2 clone 1489,0.801 and 1.21
same,odorant receptor activation,OR6B1 R143C clone 1181,0.92
same,odorant receptor activation,OR6B2 R122C clone 1444,0.627
same,odorant receptor activation,OR6B3 R261W clone 1445,1.02
same,odorant receptor activation,[1],0.859
same,odorant receptor activation,OR6C2 clone 1413,0.725
C=CCSCC=C [diallyl sulfide],odorant receptor activation,OR5T2 clone 1313,0.846
same,odorant receptor activation,OR5T2 clone 1428,1.33
same,odorant receptor activation,OR5T3 clone 1343,1.07
same,odorant receptor activation,OR5V1 clone 1070,1.03
same,odorant receptor activation,OR6A2 clone 1489,1.23
same,odorant receptor activation,OR6B1 R143C clone 1181,1.26
same,odorant receptor activation,OR6B2 R122C clone 1444,0.975
same,odorant receptor activation,OR6B3 R261W clone 1445,1.13
same,odorant receptor activation,[1],1.12
same,odorant receptor activation,OR6C2 clone 1413,1.23
CC/C=C\CCO [cis-3-hexen-1-ol],odorant receptor activation,OR5T2 clone 1313,1.09
same,odorant receptor activation,OR5T2 clone 1428,0.248
same,odorant receptor activation,OR5T3 clone 1343,0.815
same,odorant receptor activation,OR5V1 clone 1070,1.14
same,odorant receptor activation,OR6A2 clone 1489,0.905
same,odorant receptor activation,OR6B1 R143C clone 1181,1.12
same,odorant receptor activation,OR6B2 R122C clone 1444,0.265
same,odorant receptor activation,OR6B3 R261W clone 1445,0.37
same,odorant receptor activation,[1],0.145
same,odorant receptor activation,OR6C2 clone 1413,0.241
C=CCc1ccc(O)c(OC)c1 [eugenol],odorant receptor activation,OR5T2 clone 1313,0.813 and 1.54
same,odorant receptor activation,OR5T2 clone 1428,1.14 and 1.35
same,odorant receptor activation,OR5T3 clone 1343,1.99 and 1.21
same,odorant receptor activation,OR5V1 clone 1070,1.74 and 1.61
same,odorant receptor activation,OR6A2 clone 1489,2.12 and 1.2 and 1.36
same,odorant receptor activation,OR6B1 R143C clone 1181,1.89 and 1.44
same,odorant receptor activation,OR6B2 R122C clone 1444,1.2 and 1.25
same,odorant receptor activation,OR6B3 R261W clone 1445,1.24 and 1.43
same,odorant receptor activation,[1],1.47 and 1.41
same,odorant receptor activation,OR6C2 clone 1413,1.35
O=C1CCCCCCCCCCCC(=O)OCCO1 [ethylene brassylate],odorant receptor activation,OR5T2 clone 1313,1.46
same,odorant receptor activation,OR5T2 clone 1428,1.77
same,odorant receptor activation,OR5T3 clone 1343,1.14
same,odorant receptor activation,OR5V1 clone 1070,1.53
same,odorant receptor activation,OR6A2 clone 1489,1.2
same,odorant receptor activation,OR6B1 R143C clone 1181,1.67
same,odorant receptor activation,OR6B2 R122C clone 1444,1.77
same,odorant receptor activation,OR6B3 R261W clone 1445,1.76
same,odorant receptor activation,[1],1.65
same,odorant receptor activation,OR6C2 clone 1413,1.38
"CC1CCC(C(C)C)C(O)C1 (single isomer, unassigned; (+)) [(+)-menthol]",odorant receptor activation,OR5T2 clone 1313,0.879
same,odorant receptor activation,OR5T2 clone 1428,1.07
same,odorant receptor activation,OR5T3 clone 1343,0.866
same,odorant receptor activation,OR5V1 clone 1070,2.78
same,odorant receptor activation,OR6A2 clone 1489,1.34
same,odorant receptor activation,OR6B1 R143C clone 1181,1.38
same,odorant receptor activation,OR6B2 R122C clone 1444,1
same,odorant receptor activation,OR6B3 R261W clone 1445,0.729
same,odorant receptor activation,[1],1.22
same,odorant receptor activation,OR6C2 clone 1413,1.01
CC(C)CC(=O)O [isovaleric acid],odorant receptor activation,OR5T2 clone 1313,0.755
same,odorant receptor activation,OR5T2 clone 1428,0.63
same,odorant receptor activation,OR5T3 clone 1343,0.738
same,odorant receptor activation,OR5V1 clone 1070,1.57
same,odorant receptor activation,OR6A2 clone 1489,0.989
same,odorant receptor activation,OR6B1 R143C clone 1181,1.04
same,odorant receptor activation,OR6B2 R122C clone 1444,0.648
same,odorant receptor activation,OR6B3 R261W clone 1445,0.885
same,odorant receptor activation,[1],0.9
same,odorant receptor activation,OR6C2 clone 1413,0.738
CC12CCC(C1)C(C)(C)C2=O (stereo not given) [fenchone],odorant receptor activation,OR5T2 clone 1313,0.912
same,odorant receptor activation,OR5T2 clone 1428,1.04
same,odorant receptor activation,OR5T3 clone 1343,0.794
same,odorant receptor activation,OR5V1 clone 1070,0.954
same,odorant receptor activation,OR6A2 clone 1489,1.16
same,odorant receptor activation,OR6B1 R143C clone 1181,1.21
same,odorant receptor activation,OR6B2 R122C clone 1444,0.963
same,odorant receptor activation,OR6B3 R261W clone 1445,0.998
same,odorant receptor activation,[1],0.862
same,odorant receptor activation,OR6C2 clone 1413,0.899
O=C1CCCCCCCCCCCCCCO1 [pentadecalactone],odorant receptor activation,OR5T2 clone 1313,0.85
same,odorant receptor activation,OR5T2 clone 1428,1.06
same,odorant receptor activation,OR5T3 clone 1343,0.997
same,odorant receptor activation,OR5V1 clone 1070,0.826
same,odorant receptor activation,OR6A2 clone 1489,0.805
same,odorant receptor activation,OR6B1 R143C clone 1181,0.681
same,odorant receptor activation,OR6B2 R122C clone 1444,1.48
same,odorant receptor activation,OR6B3 R261W clone 1445,1.37
same,odorant receptor activation,[1],1.4
same,odorant receptor activation,OR6C2 clone 1413,1.2
CCCCCOC(C)=O [n-amyl acetate],odorant receptor activation,OR5T2 clone 1313,0.357
same,odorant receptor activation,OR5T2 clone 1428,0.902
same,odorant receptor activation,OR5T3 clone 1343,0.442
same,odorant receptor activation,OR5V1 clone 1070,2.63
same,odorant receptor activation,OR6A2 clone 1489,0.671 and 1.04
same,odorant receptor activation,OR6B1 R143C clone 1181,0.657
same,odorant receptor activation,OR6B2 R122C clone 1444,0.974
same,odorant receptor activation,OR6B3 R261W clone 1445,1.03
same,odorant receptor activation,[1],0.746
same,odorant receptor activation,OR6C2 clone 1413,0.835
CC(C)=CCCC(C)=CC=O [citral],odorant receptor activation,OR5T2 clone 1313,1.39
same,odorant receptor activation,OR5T2 clone 1428,0.276
same,odorant receptor activation,OR5T3 clone 1343,1.02
same,odorant receptor activation,OR5V1 clone 1070,1.18
same,odorant receptor activation,OR6A2 clone 1489,0.984
same,odorant receptor activation,OR6B1 R143C clone 1181,0.96
same,odorant receptor activation,OR6B2 R122C clone 1444,0.326
same,odorant receptor activation,OR6B3 R261W clone 1445,0.327
same,odorant receptor activation,[1],0.152
same,odorant receptor activation,OR6C2 clone 1413,0.257

# Quoted at random: 2 records from the list
structure (smiles),measurement,setting,value
CC12CCC(C1)C(C)(C)C2=O (stereo not given) [fenchone],odorant receptor activation,OR5T2 clone 1313,0.912
CC(C)CC(=O)O [isovaleric acid],odorant receptor activation,OR5V1 clone 1070,1.57

# Reformatted tab-delimited: entries from further up.
structure (smiles)	measurement	setting	value
CCCCCCCC=CC=O [2-decenal]	odorant receptor activation	OR6B3 R261W clone 1445	0.895
same	odorant receptor activation	[1]	1.16
same	odorant receptor activation	OR6C2 clone 1413	1.35

# Another view of part of the listing above:
structure (smiles)	measurement	setting	value
C=CCc1ccc(O)c(OC)c1 [eugenol]	odorant receptor activation	OR6C2 clone 1413	1.35
O=C1CCCCCCCCCCCC(=O)OCCO1 [ethylene brassylate]	odorant receptor activation	OR5T2 clone 1313	1.46
same	odorant receptor activation	OR5T2 clone 1428	1.77
